PMC3574224, “Na^+ Regulation in the Malaria Parasite Plasmodiumfalciparum Involves the Cation ATPase PfATP4 and Is a Target of the Spiroindolone Antimalarials” (Cell Host & Microbe, 2013)

Test system: P. falciparum 3D7 trophozoites
Type: cell-based, Plasmodium falciparum
Method: P. falciparum strains 3D7, Dd2, NITD609-R^Dd2 clone #2, Dd2^attB, and Dd2^attB CAM I398F/P990R were cultured under shaking conditions as described elsewhere ([Allen and Kirk, 2010]). Cultures were synchronized 24 hr before experimentation using 5% w/v sorbitol ([Lambros and Vanderberg, 1979]). All experiments were conducted on mature trophozoite-stage parasites (36–40 hr postinvasion) functionally isolated from their host erythrocytes by permeabilization of the erythrocyte and parasitophorous vacuole membranes by brief exposure to saponin (0.05% w/v) as described previously ([Spillman et al., 2008]). After saponin isolation, parasites remained intact and able to generate and maintain transmembrane ion gradients ([Saliba and Kirk, 1999]; [Spillman et al., 2008]) as well as maintain a large inwardly negative membrane potential ([Allen and Kirk, 2004]).
The [Na^+]i of saponin-isolated parasites was measured at 37°C using the Na^+-sensitive dye SBFI (Molecular Probes, Invitrogen) in conjunction with a PerkinElmer LS 50B Fluorescence Spectrometer fitted with a Dual Excitation Fast Filter. […] The dye-loaded cells were excited at 340 nm and 380 nm with fluorescence recorded at 490 nm. Calibration of the relationship between the 340/380 nm fluorescence ratio and [Na^+]i (see Figures S1A–S1C) was carried out as described previously ([Diarra et al., 2001]; [Harootunian et al., 1989]). […]

Question: How did the “Increase in [Na^+]i” value turn out when `NS(=O)(=O)c1cc(C(=O)O)c(NCc2ccco2)cc1Cl` [Furosemide, reference compound] was run?
Answer: 2.3 ± 0.7 mM
